Values joined by “and” are separate entries in the source; they are usually repeats but may differ in a detail not shown here. Equal values may be shown once. Where a name gives a salt, the structure may show the parent alone. ± gives the standard deviation of the averaged measurements. The list shows a part of the results. Baselines shift from plate to plate; read single values as rough.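 Culture-activated primary human stellate myofibroblasts, where regained lipid droplets signal inactivation. Value: share of Hoechst-counted cells above a per-plate Bodipy cutoff, in duplicate wells, with DMSO negative and nortriptyline positive controls on each plate. Hits: a control-normalized score above the plate's top-tenth-percentile nortriptyline wells, or one of a plate's three best wells. Final well concentrations are not given.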
System: primary human hepatic stellate cells (donor 1)
Experiment: percent Bodipy-positive cells; higher = more lipid droplet accumulation
Settings: 48 h
[1] = library stock concentration: 80 uM
[2] = library stock concentration: 400 uM
[3] = library stock concentration: 2 mM
[4] = library stock concentration: 10 mM
[5] = library stock concentration: 3.33 mM
[6] = library stock concentration: 1 mM

For O=C1Nc2ccc(I)cc2/C1=C/c1cc(Br)c(O)c(Br)c1, the “percent Bodipy-positive cells” value [1] was 10.6 ± 5.9%, the “percent Bodipy-positive cells” value [2] was 11.4 ± 2.6% and the “percent Bodipy-positive cells” value [3] was 5.98 ± 0.066%. For the same compound, the “percent Bodipy-positive cells” value (library stock concentration: 9.6 mM) was 24.4 ± 1.7% and the “percent Bodipy-positive cells” value [4] was 25.4% and 9.82% and 7.75%.

In the case of O=c1onc2cnc3ccccc3n12, the “percent Bodipy-positive cells” value [4] is reported as 69.9 ± 8.4%.

In the case of O=C1N=C(O)NC1(c1ccccc1)c1ccccc1 [Phenytoin sodium], the “percent Bodipy-positive cells” value [5] is reported as 21.3 ± 10%, the “percent Bodipy-positive cells” value (library stock concentration: 7.3 mM) is reported as 4.82 ± 0.67% and the “percent Bodipy-positive cells” value [4] is reported as 15.4% and 18.5% and 24%.

For CC(=O)OCC(=O)[C@@]1(O)[C@H](OC(C)=O)C[C@H]2[C@@H]3CCC4=CC(=O)C=C[C@]4(C)[C@@]3(F)[C@@H](O)C[C@@]21C [Triamcinolone diacetate], the “percent Bodipy-positive cells” value [4] was 16.1 ± 4.7%.

Clc1cccc(Nc2nnc(-c3ccccc3)c3ccccc23)c1 was tested, and the “percent Bodipy-positive cells” value [4] was 18.5 ± 2.4% and the “percent Bodipy-positive cells” value (library stock concentration: 15.1 mM) was 36.2 ± 1.6%.

CC(C)Cn1cnc2c(N)nc3ccccc3c21 [Imiquimod] was tested, and the “percent Bodipy-positive cells” value (library stock concentration: 8.3 mM) was 7.2 ± 1.1%.

With O=C(O)C=Cc1cc(Br)c(Br)c(Br)c1Br [Casein Kinase II Inhibitor III, TBCA] the “percent Bodipy-positive cells” value [5] was 12.1 ± 7.4%.

With Cc1nc2ccc(NC(=O)Nc3ccnc4cccnc34)cc2o1 the “percent Bodipy-positive cells” value [4] was 12.3 ± 5.3%.

With O=C(c1ccc(Nc2nccc(-c3cc4ccccc4s3)n2)cc1)N1CCC(N2CCCC2)CC1 [IKK-16 (IKK Inhibitor VII)] the “percent Bodipy-positive cells” value [5] was 98.8 ± 1.7%.

For Oc1nc(-c2ccc(C(F)(F)F)cc2)nc2c1CSCC2, the “percent Bodipy-positive cells” value [6] was 12 ± 1.8%, the “percent Bodipy-positive cells” value [5] was 4.87 ± 3.7% and the “percent Bodipy-positive cells” value [4] was 19.3% and 6.28%.

NC(=O)N1c2ccccc2CC(=O)c2ccccc21 [Oxcarbazepine] was tested, and the “percent Bodipy-positive cells” value [5] was 27.5 ± 0.34%, the “percent Bodipy-positive cells” value (library stock concentration: 7.9 mM) was 6.37% and 9.36% and the “percent Bodipy-positive cells” value [4] was 13.1% and 36.8%.

For NC(=O)N1c2ccccc2CC(=O)c2ccccc21 [Trileptal], the “percent Bodipy-positive cells” value [4] was 19.2 ± 4.7%.

For CCCCC[C@H](O)/C=C/[C@H]1OC(O)C[C@H](O)[C@@H]1C/C=C\CCCC(=O)O (stereo partly drawn) [Thromboxane B2], the “percent Bodipy-positive cells” value [6] was 14 ± 4.4%.

With CCCCCCCCCCCCCCCC(=O)N[C@H](C)CO [R-Palmitoyl-(1-methyl) Ethanolamide] the “percent Bodipy-positive cells” value [6] was 11.9 ± 1.2%.

In the case of NC1=NCC2c3ccccc3Cc3ccccc3N12 (stereo not drawn) [Epinastine HCl], the “percent Bodipy-positive cells” value [5] is reported as 11.7 ± 1.2% and the “percent Bodipy-positive cells” value [4] is reported as 49.3 ± 7.6%.

With NC1=NCC2c3ccccc3Cc3ccccc3N12 (stereo not drawn) [Epinastine hydrochloride] the “percent Bodipy-positive cells” value [4] was 78.7 ± 5.1%.

Cn1cncc1[C@@](N)(c1ccc(Cl)cc1)c1ccc2c(c1)c(-c1cccc(Cl)c1)cc(=O)n2C [Tipifarnib] was tested, and the “percent Bodipy-positive cells” value [5] was 8.56 ± 2.1% and the “percent Bodipy-positive cells” value [4] was 47.1 ± 10%.

For Cc1nnc(SCC2=C(C(=O)O)N3C(=O)[C@@H](NC(=O)Cn4cnnn4)[C@H]3SC2)s1 [Cefazolin sodium], the “percent Bodipy-positive cells” value [4] was 12.6% and 37.2%.

For Cc1nnc(SCC2=C(C(=O)O)N3C(=O)[C@@H](NC(=O)Cn4cnnn4)[C@H]3SC2)s1 [Cefazolin?Sodium], the “percent Bodipy-positive cells” value [4] was 29.4 ± 2%.

In the case of Cc1nnc(SCC2=C(C(=O)O)N3C(=O)[C@@H](NC(=O)Cn4cnnn4)[C@H]3SC2)s1 [Cefazolin sodium salt], the “percent Bodipy-positive cells” value is reported as 10.1 ± 2.2%.

With Cc1cc(C#N)cc(C)c1Oc1nc(Nc2ccc(C#N)cc2)nc(N)c1Br [Etravirine (TMC125)] the “percent Bodipy-positive cells” value [5] was 16.1 ± 4.8% and the “percent Bodipy-positive cells” value [4] was 74.1 ± 6.5%.

In the case of C=CC(=O)Nc1cc(-n2c(=O)ccc3cnc4ccc(-c5cn[nH]c5)cc4c32)ccc1C, the “percent Bodipy-positive cells” value [1] is reported as 14.5 ± 2.4%, the “percent Bodipy-positive cells” value [2] is reported as 7.18 ± 1.1% and the “percent Bodipy-positive cells” value [3] is reported as 22.3 ± 5.7%. For the same compound, the “percent Bodipy-positive cells” value [4] was 76.7 ± 20%.

With Nc1nc2c(ncn2[C@@H]2O[C@H](CO)[C@@H](O)[C@@H]2O)c(=O)[nH]1 [Ara-G hydrate] the “percent Bodipy-positive cells” value [4] was 17.04 ± 0.097%.

O=c1[nH]c(=O)n([C@H]2C[C@H](O)[C@@H](CO)O2)cc1C(F)(F)F [Trifluridine] was tested, and the “percent Bodipy-positive cells” value was 9.54 ± 4.1%, the “percent Bodipy-positive cells” value [5] was 20.8 ± 6% and the “percent Bodipy-positive cells” value (library stock concentration: 6.8 mM) was 14.7 ± 0.95%. The “percent Bodipy-positive cells” value [4] was 21.8% and 44%.

COc1ccc2c3c1O[C@H]1C[C@@H](O)C=C[C@@]31CCN(C)C2 [Galanthamine] was tested, and the “percent Bodipy-positive cells” value [4] was 11.4 ± 3.9%.

COc1ccc2c3c1O[C@H]1C[C@@H](O)C=C[C@@]31CCN(C)C2 [Galanthamine HBr] was tested, and the “percent Bodipy-positive cells” value (library stock concentration: 7 mM) was 9.06 ± 3.6%.

In the case of COc1ccc2c3c1O[C@H]1C[C@@H](O)C=C[C@@]31CCN(C)C2 [Galanthamine hydrobromide], the “percent Bodipy-positive cells” value is reported as 31.9 ± 0.44%, the “percent Bodipy-positive cells” value (library stock concentration: 5.4 mM) is reported as 13.8 ± 1.1% and the “percent Bodipy-positive cells” value [4] is reported as 19.7% and 6.46%.

For Cc1cc(F)c(Nc2ncnc3cc(OCc4ccccc4)ccc23)cc1O, the “percent Bodipy-positive cells” value [5] was 17.2 ± 2.5% and the “percent Bodipy-positive cells” value [4] was 45.2% and 20.6%.

With CCCCC1(C2CCCC2)Cc2cc(OCC(=O)O)c(Cl)c(Cl)c2C1=O (stereo in doubt) [R(+)-Butylindazone] the “percent Bodipy-positive cells” value [4] was 29.3 ± 3.5%.

CC1(C)S[C@@H]2[C@H](NC(=O)COc3ccccc3)C(=O)N2[C@H]1C(=O)O [Penicillin v potassium] was tested, and the “percent Bodipy-positive cells” value (library stock concentration: 5.1 mM) was 2.37 ± 0.67% and the “percent Bodipy-positive cells” value [4] was 15.9 ± 0.67%.

In the case of CC1(C)S[C@@H]2[C@H](NC(=O)COc3ccccc3)C(=O)N2[C@H]1C(=O)O [Penicillin V], the “percent Bodipy-positive cells” value [4] is reported as 33.4 ± 4.8%.

CCCC(=O)O[C@]1(C(=O)CO)CC[C@H]2[C@@H]3CCC4=CC(=O)CC[C@]4(C)[C@H]3[C@@H](O)C[C@@]21C [Hydrocortisone butyrate] was tested, and the “percent Bodipy-positive cells” value [4] was 20.3 ± 2.7%.

For CC(C)NC(=N)NC(=N)Nc1ccc(Cl)cc1 [Proguanil hydrochloride], the “percent Bodipy-positive cells” value was 21.7 ± 2.4%.

CC(C)NC(=N)NC(=N)Nc1ccc(Cl)cc1 [Chloroguanide hydrochloride] was tested, and the “percent Bodipy-positive cells” value (library stock concentration: 6.9 mM) was 19.1 ± 4.7%.

In the case of CC(C)n1cnc2c(NCCc3ccc(O)cc3)nc(-c3csc4ccccc34)nc21 [StemRegenin 1 (SR1)], the “percent Bodipy-positive cells” value [5] is reported as 8.14 ± 1.1%.

O=C(NNc1ccccc1)c1ccncc1 was tested, and the “percent Bodipy-positive cells” value [5] was 26.89 ± 0.081% and the “percent Bodipy-positive cells” value [4] was 29.8 ± 7.1%.

With Cc1nc2c(O)cccc2c(=O)[nH]1 the “percent Bodipy-positive cells” value [4] was 7.04 ± 2.4%.

For CCCCc1nc2ccn(Cc3cccs3)c(=O)c2n1Cc1ccc(-c2ccccc2-c2nn[nH]n2)cc1, the “percent Bodipy-positive cells” value [4] was 7.81 ± 0.98%.

In the case of O=C1OC(=O)[C@H]2[C@@H]1[C@@H]1CC[C@H]2O1 [Norcantharidin], the “percent Bodipy-positive cells” value [4] is reported as 61.6 ± 1.3%.

With CN(C)CC[C@@H](c1ccc(Br)cc1)c1ccccn1 the “percent Bodipy-positive cells” value [4] was 40.8 ± 16%.

For O=P(O)(O)OC1[C@@H](O)[C@H](O)C(O)[C@H](O)[C@@H]1O (stereo partly drawn) [D-myo-Inositol-3-phosphate (sodium salt)], the “percent Bodipy-positive cells” value [6] was 6.93 ± 1.5%.

In the case of NCCCCN [Putrescine dihydrochloride], the “percent Bodipy-positive cells” value [4] is reported as 12.3 ± 1.1%.

With CN(C)CCOc1cc(-c2cn[nH]c2)ccc1NC(=O)C1COc2ccccc2O1 (stereo not drawn) the “percent Bodipy-positive cells” value [2] was 22.9 ± 7% and the “percent Bodipy-positive cells” value [3] was 48 ± 11%.

In the case of CN(Cc1ccc(C(C)(C)C)cc1)Cc1cccc2ccccc12 [Butenafine], the “percent Bodipy-positive cells” value (library stock concentration: 6.3 mM) is reported as 9.86 ± 1.3%.

In the case of CN(Cc1ccc(C(C)(C)C)cc1)Cc1cccc2ccccc12 [Butenafine HCl], the “percent Bodipy-positive cells” value [5] is reported as 13.3 ± 7.3% and the “percent Bodipy-positive cells” value [4] is reported as 39.1 ± 1.8%.

In the case of N=C(CC(O)COc1ccccc1-c1ccccc1)N1CCCCC1 (stereo not drawn), the “percent Bodipy-positive cells” value [4] is reported as 53.9 ± 6.2%.

O=C(NCCCNc1nc(Nc2cccc(NC(=O)N3CCCC3)c2)ncc1I)c1cccs1 was tested, and the “percent Bodipy-positive cells” value [1] was 10.9 ± 3.4%, the “percent Bodipy-positive cells” value [2] was 8.06% and 26% and the “percent Bodipy-positive cells” value [5] was 21.7 ± 10%.

In the case of CN1CC[C@@H](c2c(O)cc(O)c3c(=O)cc(-c4ccccc4Cl)oc23)[C@@H]1CO, the “percent Bodipy-positive cells” value [5] is reported as 64.3 ± 1.1% and the “percent Bodipy-positive cells” value [4] is reported as 69.9 ± 5.9%.

From the supplement of paper PMC9135407
